Experimental data: PubChem BioAssay AID2685 (National Center for Advancing Translational Sciences (NCATS), 2010)
The other results are listed elsewhere or left out. Further columns of the screen follow, without active or inactive calls. Most of these compounds were active or inconclusive in the main read-out, so they are no random draw. Potencies come from curve fits of mixed quality, noted in brackets.

Experiment: qHTS Assay for Lipid Storage Modulators in Drosophila S3 Cells;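 as to cell number change: cells counted by Cell Tracker Red CMTPX staining in the red channel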
Conditions: BODIPY lipid droplet fluorescence, 18-24 h; for cell number change: measured here: cell count max response, cells fed with added oleic acid
In short: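 Drosophila S3 cells loaded with oleic acid (400 uM, as added) and compounds at several concentrations; lipid droplets imaged by 488-nm laser-scanning cytometry, 500–530 nm intensity and object ratio to cell channel. Percent activity normalized to 20 uM Triacsin C.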

[1] = measured here: lipid fluorescence (Fed channel) AC50, cells fed with added oleic acid
[2] = measured here: cell number channel AC50, cells fed with added oleic acid

SMILES: CCOc1[nH]n(-c2ccc(Cl)cc2)c(=O)c1C=NCc1cccnc1
- cell number change: -9.79%
- AC50 [1]: 0.731 µM [rising, single point]

SMILES: O=C(CSc1nc2ccccc2c(=O)n1Cc1ccc(F)cc1)NCc1cccs1
- cell number change: 3.3%
- AC50 [1]: 20.6 µM [rising, single point]

SMILES: O=C(N/C(=C/c1cccc(Br)c1)c1nc(=S)[nH][nH]1)c1ccccc1
- cell number change: -50.8%
- AC50 [2]: 13 µM [falling, single point]
- AC50 [1]: 13 µM [falling, partial curve]

SMILES: CCn1c(N2CCC(C)CC2)nc2c1c(=O)n(C)c(=O)n2C
- cell number change: -0.179%
- AC50 [1]: 0.146 µM [rising, full curve]

SMILES: Cc1ccc(NC(=O)CSc2n[nH]c(-c3ccccn3)n2)cc1
- cell number change: 11.7%
- AC50 [1]: 0.58 µM [rising, single point]

SMILES: O=C(CSc1ncn[nH]1)NC1CC2CCC1C2 (stereo not drawn)
- cell number change: -1.02%

SMILES: Cc1ccc(S(=O)(=O)N2CCC(C(=O)OCC(=O)N(CC(C)C)C3CCS(=O)(=O)C3)CC2)cc1C (stereo not drawn)
- cell number change: -26.6%
- AC50 [1]: 32.6 µM [falling, single point]

SMILES: COc1cc(/C=C2/SC(=S)N(Cc3ccccc3)C2=O)ccc1OS(C)(=O)=O
- cell number change: 0.173%
- AC50 [1]: 1.46 µM [rising, full curve, poor fit]

SMILES: CN(CC(=O)NC(=O)NCc1ccccc1)CC(=O)Nc1ccc(Cl)c(Cl)c1
- cell number change: -28.9%
- AC50 [1]: 18.4 µM [falling, partial curve]

SMILES: COc1cc(OC)cc(C(=O)Nc2ccc(C(=O)NCC3CCCO3)cc2)c1 (stereo not drawn)
- cell number change: -19.2%
- AC50 [1]: 18.4 µM [falling, partial curve]

SMILES: COc1ccc(OC)c(CN2CCN(c3ccccc3OC)CC2)c1
- cell number change: 1.27%

SMILES: CCOc1ccc(S(=O)(=O)N/N=C(\C)c2ccc3c(c2)OCO3)cc1
- cell number change: 4.96%

SMILES: CC(=O)Nc1ccc(-c2ccc(NC(C)=O)c(O)c2)cc1O
- cell number change: 20.9%
- AC50 [2]: 6.51 µM [falling, single point]

SMILES: O=c1ccc(NS(=O)(=O)c2ccccc2Cl)cn1Cc1ccc(Cl)c(Cl)c1
- cell number change: -46%

SMILES: Cc1ccc(C(C)NC(=O)Cn2nc(C)c([N+](=O)[O-])c2C)cc1 (stereo not drawn)
- cell number change: 26%
- AC50 [2]: 6.51 µM [rising, single point]
- AC50 [1]: 0.082 µM [rising, full curve, poor fit]

SMILES: COc1ccc(OCCc2nnc(N)s2)cc1
- cell number change: -17%
- AC50 [1]: 29.1 µM [falling, single point]

SMILES: COc1ccc(NC(=O)N2CCCC2C(=O)NCCc2ccccc2)cc1 (stereo not drawn)
- cell number change: 14.5%
- AC50 [1]: 6.51 µM [falling, single point]

SMILES: COCCNC(=O)C(c1cccs1)N(C(=O)Cn1nnc2ccccc21)c1ccc2c(c1)OCO2 (stereo not drawn)
- cell number change: -10.1%
